The assay addresses v-myc avian myelocytomatosis viral oncogene neuroblastoma derived homolog (MYCN) (human (endogenous in SK-N-BE(2)-C)) (UniProt P04198). The experiment in a line: co-IP; 750 µg lysate of SK-N-BE(2)-C cells (BC100 buffer: 20 mM Tris-HCl pH 7.9, 100 mM NaCl, 10% glycerol, 0.2 mM EDTA, 0.2% Triton X-100) incubated with MYCN or control mouse IgG antibody, captured by Gammabind G-Sepharose beads, blotted for PA2G4; cells treated for 1 h with #5333 (53 µM) or #5338 (47 µM).

Sequences of proteins named here, by UniProt entry; tags and fusion partners are left off.
UniProt P04198: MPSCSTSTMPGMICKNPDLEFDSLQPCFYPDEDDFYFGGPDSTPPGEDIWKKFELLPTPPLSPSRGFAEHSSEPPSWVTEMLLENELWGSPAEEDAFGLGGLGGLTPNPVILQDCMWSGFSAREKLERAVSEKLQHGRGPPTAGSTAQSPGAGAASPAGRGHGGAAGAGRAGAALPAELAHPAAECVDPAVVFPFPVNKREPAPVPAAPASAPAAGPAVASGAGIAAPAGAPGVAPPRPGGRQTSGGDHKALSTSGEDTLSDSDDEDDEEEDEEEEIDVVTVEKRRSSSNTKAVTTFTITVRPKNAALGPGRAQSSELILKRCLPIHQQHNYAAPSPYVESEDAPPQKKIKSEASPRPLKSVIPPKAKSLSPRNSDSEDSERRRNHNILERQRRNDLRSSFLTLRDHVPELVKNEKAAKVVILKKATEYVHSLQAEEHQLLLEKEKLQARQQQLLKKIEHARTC

Results are given in words; binding and its absence hold for the method and conditions named. Binding seen in cells or lysates may run through a third protein. Some results given as binding are weak or reduced against the parent protein; the word gives no strength.

B1: proliferation-associated protein 2G4 (PA2G4) (protein, UniProt Q9UQ80 1-394)
chain: MSGEDEQQEQTIAEDLVVTKYKMGGDIANRVLRSLVEASSSGVSVLSLCEKGDAMIMEETGKIFKKEKEMKKGIAFPTSISVNNCVCHFSPLKSDQDYILKEGDLVKIDLGVHVDGFIANVAHTFVVDVAQGTQVTGRKADVIKAAHLCAEAALRLVKPGNQNTQVTEAWNKVAHSFNCTPIEGMLSHQLKQHVIDGEKTIIQNPTDQQKKDHEKAEFEVHEVYAVDVLVSSGEGKAKDAGQRTTIYKRDPSKQYGLKMKTSRAFFSEVERRFDAMPFTLRAFEDEKKARMGVVECAKHELLQPFNVLYEKEGEFVAQFKFTVLLMPNGPMRITSGPFEPDLYKSEMEVQDAELKALLQSSASRKTQKKKKKKASKTAENATSGETLEENEAGD
Turning to B1, the binding result is listed as “binds”.

For the origin of these results see article PMC10046377, “Inhibitors of the Oncogenic PA2G4-MYCN Protein-Protein Interface” (Cancers, 2023).
